The target of assay [1] is T1, His6-ScPrp19(144–503) (S. cerevisiae, UniProt P32523 144-503).
T1 construct: Prp19, S. cerevisiae, amino acids 144–503; also called His6-Prp19(144–503); ScPrp19 WD40 domain; source: E. coli BL21 (pET15b), purified (Ni-NTA agarose)
T1 sequence (looked up): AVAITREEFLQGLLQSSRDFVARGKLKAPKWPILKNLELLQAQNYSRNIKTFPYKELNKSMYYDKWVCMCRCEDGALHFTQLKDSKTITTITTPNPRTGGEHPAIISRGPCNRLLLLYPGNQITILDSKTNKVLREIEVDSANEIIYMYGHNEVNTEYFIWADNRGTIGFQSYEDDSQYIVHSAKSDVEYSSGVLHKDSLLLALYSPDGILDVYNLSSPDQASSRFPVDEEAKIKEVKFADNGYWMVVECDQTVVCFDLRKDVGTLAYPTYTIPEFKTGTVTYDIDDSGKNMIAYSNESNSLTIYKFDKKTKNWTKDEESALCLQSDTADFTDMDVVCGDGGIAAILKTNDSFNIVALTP
The experiment in a line: pull-down; His6-Prp19(144–503) on Ni-NTA beads mixed 1 hr at 4°C with S. cerevisiae protein lysates expressing GFP-tagged proteins; washed with bead binding buffer with 5 mM imidazole; anti-GFP immunoblot; only the target purified.

In assay [2] the target is T2, Aim4-Myc13 (S. cerevisiae) (UniProt P38305).
T2 sequence: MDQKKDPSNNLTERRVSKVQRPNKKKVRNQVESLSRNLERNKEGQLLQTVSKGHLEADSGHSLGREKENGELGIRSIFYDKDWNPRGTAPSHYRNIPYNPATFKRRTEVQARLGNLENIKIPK
The experiment in a line: co-IP; S. cerevisiae lysates of Aim4-Myc13 Urn1-GFP double tag and single tag strains; anti-Myc or anti-GFP immunoprecipitates, immunoblot. (In general: Immunoblotting shows a protein as a band on a membrane.)

In assay [3] the target is His6-ScUrn1 (S. cerevisiae) (UniProt Q06525). In words: AUC; sedimentation velocity, 30,000 rpm, 22°C, 280 nm; Sedfit c(s) analysis; ScPrp19 constant with His6-ScUrn1 at 1∶1 or 1∶2.5 molar ratio; both purified.
For assay [4], the target named is MBP-ScPrp17 (S. cerevisiae) (UniProt P40968). Described as above.
Assay [5] concerns the target T3, Urn1-GFP (S. cerevisiae) (S. cerevisiae) (UniProt Q06525).
T3 sequence: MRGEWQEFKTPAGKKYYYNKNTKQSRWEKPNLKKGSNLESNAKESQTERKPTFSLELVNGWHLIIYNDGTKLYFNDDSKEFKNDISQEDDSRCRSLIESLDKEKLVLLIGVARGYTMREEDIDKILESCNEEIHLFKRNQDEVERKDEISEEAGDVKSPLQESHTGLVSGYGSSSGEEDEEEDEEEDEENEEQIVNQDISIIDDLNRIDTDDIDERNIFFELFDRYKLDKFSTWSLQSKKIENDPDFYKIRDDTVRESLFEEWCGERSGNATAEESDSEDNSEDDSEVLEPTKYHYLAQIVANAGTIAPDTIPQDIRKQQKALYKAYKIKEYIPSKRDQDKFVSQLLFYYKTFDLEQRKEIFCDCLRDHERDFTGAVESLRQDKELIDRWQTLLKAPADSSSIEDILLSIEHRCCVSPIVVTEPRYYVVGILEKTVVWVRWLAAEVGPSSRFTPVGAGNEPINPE
The experiment in a line: co-IP; S. cerevisiae lysates of Aim4-Myc13 Urn1-GFP double tag and single tag strains; anti-Myc or anti-GFP immunoprecipitates, immunoblot.

Results are given in words; binding and its absence hold for the method and conditions named. For some assays here: In cells and extracts the contact can be indirect. Some results given as binding are weak or reduced against the parent protein; the word gives no strength. Where a sequence is shown, tags or fusion partners need not be part of it.

B1: Urn1-GFP (S. cerevisiae) (protein, UniProt Q06525 1-465)
chain: MRGEWQEFKTPAGKKYYYNKNTKQSRWEKPNLKKGSNLESNAKESQTERKPTFSLELVNGWHLIIYNDGTKLYFNDDSKEFKNDISQEDDSRCRSLIESLDKEKLVLLIGVARGYTMREEDIDKILESCNEEIHLFKRNQDEVERKDEISEEAGDVKSPLQESHTGLVSGYGSSSGEEDEEEDEEEDEENEEQIVNQDISIIDDLNRIDTDDIDERNIFFELFDRYKLDKFSTWSLQSKKIENDPDFYKIRDDTVRESLFEEWCGERSGNATAEESDSEDNSEDDSEVLEPTKYHYLAQIVANAGTIAPDTIPQDIRKQQKALYKAYKIKEYIPSKRDQDKFVSQLLFYYKTFDLEQRKEIFCDCLRDHERDFTGAVESLRQDKELIDRWQTLLKAPADSSSIEDILLSIEHRCCVSPIVVTEPRYYVVGILEKTVVWVRWLAAEVGPSSRFTPVGAGNEPINPE
With B1, the binding result in assay [1] and in assay [2] was “binds” throughout.

B2: His6-ScUrn1 (natural protein, S. cerevisiae, UniProt Q06525 1-465, looked up)
chain: MRGEWQEFKTPAGKKYYYNKNTKQSRWEKPNLKKGSNLESNAKESQTERKPTFSLELVNGWHLIIYNDGTKLYFNDDSKEFKNDISQEDDSRCRSLIESLDKEKLVLLIGVARGYTMREEDIDKILESCNEEIHLFKRNQDEVERKDEISEEAGDVKSPLQESHTGLVSGYGSSSGEEDEEEDEEEDEENEEQIVNQDISIIDDLNRIDTDDIDERNIFFELFDRYKLDKFSTWSLQSKKIENDPDFYKIRDDTVRESLFEEWCGERSGNATAEESDSEDNSEDDSEVLEPTKYHYLAQIVANAGTIAPDTIPQDIRKQQKALYKAYKIKEYIPSKRDQDKFVSQLLFYYKTFDLEQRKEIFCDCLRDHERDFTGAVESLRQDKELIDRWQTLLKAPADSSSIEDILLSIEHRCCVSPIVVTEPRYYVVGILEKTVVWVRWLAAEVGPSSRFTPVGAGNEPINPE
notes: Urn1, S. cerevisiae (His6-ScUrn1 mass 55.1 kDa); the printed mass fits the whole protein; also called His6-Urn1; source: E. coli BL21 (pETDuet-1), co-expressed with ScPrp19, purified (Ni-NTA agarose, heparin agarose, gel filtration)
As for B2, the binding entry in assay [3] is “no binding”.

B3: MBP-ScPrp17 (protein, UniProt P40968 1-455)
chain: MGLVDGYDTSSDSDLNFDEGKSVHEKKNGNLHEDTSYEPSSNNIHKRKSHFTKSELKRRRKTRKGDGPWGSWSSSDDETSQASETQKEDQDIFVHALAEDNLDSEQIEVEEVSHFYGKSEKDYQGRGYLYPPNDVDVDLREERISFRCYLPKKVIRNYPGHPEGTTALKFLPKTGHLILSGGNDHTIKIWDFYHDYECLRDFQGHNKPIKALRFTEDCQSFLSSSFDRSVKIWDTETGKVKTRLHLNSTPADVESRPTNPHEFIVGLSNSKILHYDDRVSENQGLVQTYDHHLSSILALKYFPDGSKFISSSEDKTVRIWENQINVPIKQISDTAQHSMPFLNVHPSQNYFCAQSMDNRIYSFSLKPKYKRHPKKIFKGHSSAGYGISLAFSGDGRYICSGDSKSRLFTWDWNTSRLLNNIKIPGNKPITQVDWHPQETSKVICSGAAGKIYVCD
On to B3, for which, in assay [4], the binding entry is listed as “no binding”.

B4: Aim4-Myc13 (protein, UniProt P38305 1-123)
chain: MDQKKDPSNNLTERRVSKVQRPNKKKVRNQVESLSRNLERNKEGQLLQTVSKGHLEADSGHSLGREKENGELGIRSIFYDKDWNPRGTAPSHYRNIPYNPATFKRRTEVQARLGNLENIKIPK
In the case of B4, in assay [5], the binding result is listed as “binds”.

For the origin of these results see publication PMC3046128, “Systematic Two-Hybrid and Comparative Proteomic Analyses Reveal Novel Yeast Pre-mRNA Splicing Factors Connected to Prp19” (PLoS ONE, 2011).
